Laboratory results published in paper PMC6561926.
No constants are given. Whether binding was seen depends on the method and setting. Binding seen in cells or lysates may run through a third protein. Some binding calls cover weakened binding; strength is not graded here.

Sequences of proteins named here, by UniProt entry; tags and fusion partners are left off.
UniProt Q15910: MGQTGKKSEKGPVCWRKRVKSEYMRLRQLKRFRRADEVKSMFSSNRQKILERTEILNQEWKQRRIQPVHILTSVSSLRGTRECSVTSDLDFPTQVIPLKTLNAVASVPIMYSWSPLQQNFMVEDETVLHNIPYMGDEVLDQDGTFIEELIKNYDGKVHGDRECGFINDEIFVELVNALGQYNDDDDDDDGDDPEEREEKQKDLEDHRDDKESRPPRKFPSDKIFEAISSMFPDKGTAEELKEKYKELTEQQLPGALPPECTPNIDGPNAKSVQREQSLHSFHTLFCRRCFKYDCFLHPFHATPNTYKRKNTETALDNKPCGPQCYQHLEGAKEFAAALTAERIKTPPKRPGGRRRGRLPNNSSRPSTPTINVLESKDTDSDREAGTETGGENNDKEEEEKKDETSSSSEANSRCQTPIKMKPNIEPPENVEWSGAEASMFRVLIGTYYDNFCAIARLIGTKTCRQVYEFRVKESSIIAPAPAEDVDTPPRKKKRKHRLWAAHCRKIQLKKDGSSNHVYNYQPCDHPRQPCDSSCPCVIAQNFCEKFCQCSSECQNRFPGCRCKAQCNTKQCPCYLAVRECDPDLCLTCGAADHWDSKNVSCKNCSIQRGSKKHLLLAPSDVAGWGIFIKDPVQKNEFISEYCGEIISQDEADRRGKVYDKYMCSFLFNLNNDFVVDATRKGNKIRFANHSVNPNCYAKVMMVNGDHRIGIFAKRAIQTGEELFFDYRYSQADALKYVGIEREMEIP
UniProt P40763: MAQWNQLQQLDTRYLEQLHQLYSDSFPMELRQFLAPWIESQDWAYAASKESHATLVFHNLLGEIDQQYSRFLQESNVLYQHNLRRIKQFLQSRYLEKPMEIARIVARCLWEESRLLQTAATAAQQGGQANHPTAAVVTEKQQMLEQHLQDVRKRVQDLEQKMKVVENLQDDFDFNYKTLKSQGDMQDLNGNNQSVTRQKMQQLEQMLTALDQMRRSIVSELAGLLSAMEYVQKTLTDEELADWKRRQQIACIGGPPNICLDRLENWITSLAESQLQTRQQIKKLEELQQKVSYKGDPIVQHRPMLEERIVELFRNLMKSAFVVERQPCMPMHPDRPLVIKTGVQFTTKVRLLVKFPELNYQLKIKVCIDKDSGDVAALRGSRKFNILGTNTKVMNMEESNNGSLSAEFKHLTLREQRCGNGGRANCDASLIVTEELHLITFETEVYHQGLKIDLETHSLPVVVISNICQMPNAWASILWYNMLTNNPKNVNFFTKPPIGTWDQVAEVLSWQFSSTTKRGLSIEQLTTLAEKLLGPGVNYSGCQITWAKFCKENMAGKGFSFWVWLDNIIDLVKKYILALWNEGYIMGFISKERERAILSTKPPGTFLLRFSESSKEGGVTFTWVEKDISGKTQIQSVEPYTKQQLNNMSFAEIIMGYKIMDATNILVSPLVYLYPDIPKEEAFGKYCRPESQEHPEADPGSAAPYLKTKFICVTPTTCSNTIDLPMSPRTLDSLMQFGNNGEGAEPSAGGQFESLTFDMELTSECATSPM

Molecular target: Enhancer of Zeste Homolog 2 (EZH2) (human (endogenous in C4-2 and LNCaP)) (UniProt Q15910)
Assay: co-IP; endogenous proteins in C4-2 cell lysate; EZH2 antibody used to pull down the EZH2 complex, partners detected by WB; cells with/without 10 uM Enz for 4-5 days, with/without overexpression of lncRNA-p21 (pWPI), sh-lncRNA-p21 or AR knock-down

binding: binds
Substance: STAT3 (from UniProt P40763 1-770)
